Measured values reported in the supplement of paper PMC12819154, “High-throughput peptide-centric local stability assay extends protein–ligand identification to membrane proteins, tissues and bacteria” (Nature Structural & Molecular Biology, 2025).
This is one part of the list. Most entries show no effect beyond the scatter of the controls.

Sequences of proteins named here, by UniProt entry; tags and fusion partners are left off. A change or cut given only in a name is not applied to a line headed by its entry.
UniProt O09172: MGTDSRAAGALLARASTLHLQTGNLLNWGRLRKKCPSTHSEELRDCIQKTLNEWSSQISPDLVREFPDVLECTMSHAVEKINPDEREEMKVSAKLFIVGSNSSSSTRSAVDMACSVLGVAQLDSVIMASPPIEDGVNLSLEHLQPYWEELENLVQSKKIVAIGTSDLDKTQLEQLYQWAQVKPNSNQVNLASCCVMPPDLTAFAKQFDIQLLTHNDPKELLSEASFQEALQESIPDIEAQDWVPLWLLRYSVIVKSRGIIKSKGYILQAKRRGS
UniProt E9PYL2: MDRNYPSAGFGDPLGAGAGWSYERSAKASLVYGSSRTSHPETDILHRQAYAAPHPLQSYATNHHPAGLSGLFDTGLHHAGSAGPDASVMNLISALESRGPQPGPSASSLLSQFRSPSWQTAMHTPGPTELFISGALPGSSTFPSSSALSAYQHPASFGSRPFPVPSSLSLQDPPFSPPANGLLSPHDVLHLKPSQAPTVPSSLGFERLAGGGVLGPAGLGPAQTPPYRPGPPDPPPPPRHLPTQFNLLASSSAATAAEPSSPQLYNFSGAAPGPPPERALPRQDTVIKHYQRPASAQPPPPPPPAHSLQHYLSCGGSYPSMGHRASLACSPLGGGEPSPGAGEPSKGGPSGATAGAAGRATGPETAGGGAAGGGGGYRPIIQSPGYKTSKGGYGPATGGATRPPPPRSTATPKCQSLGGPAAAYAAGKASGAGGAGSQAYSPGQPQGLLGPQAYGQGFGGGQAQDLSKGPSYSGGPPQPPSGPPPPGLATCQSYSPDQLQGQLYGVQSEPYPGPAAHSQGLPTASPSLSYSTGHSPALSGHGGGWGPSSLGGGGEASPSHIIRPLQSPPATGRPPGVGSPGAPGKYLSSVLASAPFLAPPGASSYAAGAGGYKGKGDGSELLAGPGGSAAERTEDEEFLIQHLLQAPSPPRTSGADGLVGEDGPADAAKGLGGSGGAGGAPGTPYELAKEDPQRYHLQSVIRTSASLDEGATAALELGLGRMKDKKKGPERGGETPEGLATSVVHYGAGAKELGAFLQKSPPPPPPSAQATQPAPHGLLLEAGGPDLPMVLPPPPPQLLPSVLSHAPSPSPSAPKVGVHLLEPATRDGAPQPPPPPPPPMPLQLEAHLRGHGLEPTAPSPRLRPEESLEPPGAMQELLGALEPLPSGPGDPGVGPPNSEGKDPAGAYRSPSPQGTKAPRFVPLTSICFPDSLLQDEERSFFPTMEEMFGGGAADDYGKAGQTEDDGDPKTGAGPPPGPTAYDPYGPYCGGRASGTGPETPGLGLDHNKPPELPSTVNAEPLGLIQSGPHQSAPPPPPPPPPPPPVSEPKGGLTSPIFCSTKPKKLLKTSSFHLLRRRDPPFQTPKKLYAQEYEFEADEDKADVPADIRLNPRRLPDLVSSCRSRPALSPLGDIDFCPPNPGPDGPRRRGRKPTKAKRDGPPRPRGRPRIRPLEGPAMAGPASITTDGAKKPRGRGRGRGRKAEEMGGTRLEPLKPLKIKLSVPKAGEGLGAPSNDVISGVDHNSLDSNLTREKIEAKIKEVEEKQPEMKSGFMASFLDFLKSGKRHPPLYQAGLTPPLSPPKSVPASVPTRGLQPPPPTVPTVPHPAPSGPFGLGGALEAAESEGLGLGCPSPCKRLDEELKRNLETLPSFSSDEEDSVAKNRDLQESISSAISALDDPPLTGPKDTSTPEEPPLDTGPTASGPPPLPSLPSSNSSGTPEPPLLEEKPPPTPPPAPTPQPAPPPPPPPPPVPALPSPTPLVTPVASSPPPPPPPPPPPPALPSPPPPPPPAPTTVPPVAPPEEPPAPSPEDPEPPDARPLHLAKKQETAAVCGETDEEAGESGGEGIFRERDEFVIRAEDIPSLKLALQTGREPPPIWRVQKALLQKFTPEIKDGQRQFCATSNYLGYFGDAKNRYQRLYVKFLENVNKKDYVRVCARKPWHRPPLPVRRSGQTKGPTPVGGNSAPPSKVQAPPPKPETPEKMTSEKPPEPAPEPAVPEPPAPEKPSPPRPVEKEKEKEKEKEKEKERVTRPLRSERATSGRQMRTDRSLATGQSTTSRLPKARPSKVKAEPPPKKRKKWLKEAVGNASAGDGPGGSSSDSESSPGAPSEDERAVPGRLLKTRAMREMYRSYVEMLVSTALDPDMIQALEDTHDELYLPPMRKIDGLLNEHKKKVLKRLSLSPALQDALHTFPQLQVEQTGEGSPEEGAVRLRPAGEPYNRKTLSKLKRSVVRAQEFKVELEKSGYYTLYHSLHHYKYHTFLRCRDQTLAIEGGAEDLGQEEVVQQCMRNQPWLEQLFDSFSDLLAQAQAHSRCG
UniProt O09173: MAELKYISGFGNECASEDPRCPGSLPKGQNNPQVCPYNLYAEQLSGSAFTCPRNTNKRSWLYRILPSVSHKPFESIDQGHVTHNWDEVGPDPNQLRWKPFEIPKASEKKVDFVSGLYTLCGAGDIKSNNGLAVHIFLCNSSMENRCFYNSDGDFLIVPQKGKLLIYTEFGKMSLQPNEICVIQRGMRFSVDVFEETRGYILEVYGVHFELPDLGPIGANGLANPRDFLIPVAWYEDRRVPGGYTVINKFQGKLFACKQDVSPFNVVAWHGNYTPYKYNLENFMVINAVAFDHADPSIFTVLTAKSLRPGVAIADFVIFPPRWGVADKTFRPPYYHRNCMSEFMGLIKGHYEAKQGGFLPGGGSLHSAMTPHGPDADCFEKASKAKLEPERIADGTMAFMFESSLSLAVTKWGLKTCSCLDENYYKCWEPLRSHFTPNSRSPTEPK
UniProt O09111: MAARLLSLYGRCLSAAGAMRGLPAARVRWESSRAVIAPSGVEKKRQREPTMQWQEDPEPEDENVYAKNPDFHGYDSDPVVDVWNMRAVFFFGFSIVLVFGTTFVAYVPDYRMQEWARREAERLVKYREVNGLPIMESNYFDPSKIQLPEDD
UniProt O08966: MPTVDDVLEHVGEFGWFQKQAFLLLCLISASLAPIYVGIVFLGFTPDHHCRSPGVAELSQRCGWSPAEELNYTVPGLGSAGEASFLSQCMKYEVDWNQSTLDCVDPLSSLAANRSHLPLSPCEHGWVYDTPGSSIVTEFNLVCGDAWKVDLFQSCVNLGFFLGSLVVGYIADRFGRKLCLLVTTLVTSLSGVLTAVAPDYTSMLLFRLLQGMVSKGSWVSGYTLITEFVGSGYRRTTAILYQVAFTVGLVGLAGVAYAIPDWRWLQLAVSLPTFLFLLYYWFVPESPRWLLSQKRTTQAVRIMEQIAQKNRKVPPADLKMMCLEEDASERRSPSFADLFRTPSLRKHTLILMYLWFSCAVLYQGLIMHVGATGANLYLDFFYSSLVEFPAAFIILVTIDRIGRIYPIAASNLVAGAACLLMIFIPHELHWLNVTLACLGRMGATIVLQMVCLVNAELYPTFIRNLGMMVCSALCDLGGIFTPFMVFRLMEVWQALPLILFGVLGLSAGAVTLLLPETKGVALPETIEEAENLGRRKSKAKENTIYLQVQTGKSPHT
UniProt B5X0G2: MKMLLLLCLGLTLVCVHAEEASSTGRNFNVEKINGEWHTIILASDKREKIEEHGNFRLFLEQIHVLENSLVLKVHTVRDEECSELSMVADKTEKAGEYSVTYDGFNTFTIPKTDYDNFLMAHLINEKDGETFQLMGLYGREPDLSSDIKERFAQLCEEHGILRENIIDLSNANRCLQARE
UniProt O08739: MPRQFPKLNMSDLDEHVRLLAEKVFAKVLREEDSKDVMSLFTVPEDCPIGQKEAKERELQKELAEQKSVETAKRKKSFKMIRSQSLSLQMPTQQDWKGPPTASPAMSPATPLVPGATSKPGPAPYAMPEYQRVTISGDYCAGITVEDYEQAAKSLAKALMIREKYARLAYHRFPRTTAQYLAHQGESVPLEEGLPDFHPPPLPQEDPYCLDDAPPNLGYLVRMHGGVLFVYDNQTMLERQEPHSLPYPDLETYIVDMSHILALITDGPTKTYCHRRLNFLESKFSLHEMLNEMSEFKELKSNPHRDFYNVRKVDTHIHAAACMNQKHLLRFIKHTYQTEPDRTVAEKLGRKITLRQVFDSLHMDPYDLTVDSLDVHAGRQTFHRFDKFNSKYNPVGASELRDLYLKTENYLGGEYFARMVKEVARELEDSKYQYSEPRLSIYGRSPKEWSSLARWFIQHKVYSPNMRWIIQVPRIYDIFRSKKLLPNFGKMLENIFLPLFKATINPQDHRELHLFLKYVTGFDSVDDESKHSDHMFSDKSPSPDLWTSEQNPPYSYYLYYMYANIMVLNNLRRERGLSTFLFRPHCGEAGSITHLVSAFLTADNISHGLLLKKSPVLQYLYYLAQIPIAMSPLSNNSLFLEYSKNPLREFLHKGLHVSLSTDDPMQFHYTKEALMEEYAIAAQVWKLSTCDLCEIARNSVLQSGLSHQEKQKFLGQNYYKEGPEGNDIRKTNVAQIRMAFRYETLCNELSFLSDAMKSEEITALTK
UniProt O35387, whole entry: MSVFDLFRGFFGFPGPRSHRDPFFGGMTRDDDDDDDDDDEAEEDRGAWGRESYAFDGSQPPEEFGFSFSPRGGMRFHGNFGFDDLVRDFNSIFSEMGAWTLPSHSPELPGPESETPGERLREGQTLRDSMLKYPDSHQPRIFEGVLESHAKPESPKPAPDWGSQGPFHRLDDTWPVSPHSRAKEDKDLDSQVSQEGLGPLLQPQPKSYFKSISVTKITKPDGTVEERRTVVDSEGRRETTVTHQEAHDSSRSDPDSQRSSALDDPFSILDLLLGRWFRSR
UniProt G5E861: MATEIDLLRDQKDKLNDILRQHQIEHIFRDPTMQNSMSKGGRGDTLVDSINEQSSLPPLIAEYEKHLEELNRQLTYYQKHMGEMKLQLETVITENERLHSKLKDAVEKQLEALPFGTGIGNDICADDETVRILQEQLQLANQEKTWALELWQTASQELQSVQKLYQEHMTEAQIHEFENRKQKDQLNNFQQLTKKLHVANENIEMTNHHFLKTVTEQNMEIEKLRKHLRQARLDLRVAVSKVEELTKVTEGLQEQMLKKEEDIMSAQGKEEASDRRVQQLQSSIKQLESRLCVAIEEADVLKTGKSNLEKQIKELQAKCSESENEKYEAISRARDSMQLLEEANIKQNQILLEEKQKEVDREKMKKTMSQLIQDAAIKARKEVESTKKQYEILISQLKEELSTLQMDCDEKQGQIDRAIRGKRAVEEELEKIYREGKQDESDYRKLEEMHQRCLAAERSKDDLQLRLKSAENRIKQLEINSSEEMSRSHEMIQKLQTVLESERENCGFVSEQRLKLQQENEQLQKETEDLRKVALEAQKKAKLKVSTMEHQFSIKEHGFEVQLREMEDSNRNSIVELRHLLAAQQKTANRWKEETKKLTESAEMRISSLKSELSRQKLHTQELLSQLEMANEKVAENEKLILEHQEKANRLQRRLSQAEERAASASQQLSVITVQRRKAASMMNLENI
UniProt B2RY56, whole entry: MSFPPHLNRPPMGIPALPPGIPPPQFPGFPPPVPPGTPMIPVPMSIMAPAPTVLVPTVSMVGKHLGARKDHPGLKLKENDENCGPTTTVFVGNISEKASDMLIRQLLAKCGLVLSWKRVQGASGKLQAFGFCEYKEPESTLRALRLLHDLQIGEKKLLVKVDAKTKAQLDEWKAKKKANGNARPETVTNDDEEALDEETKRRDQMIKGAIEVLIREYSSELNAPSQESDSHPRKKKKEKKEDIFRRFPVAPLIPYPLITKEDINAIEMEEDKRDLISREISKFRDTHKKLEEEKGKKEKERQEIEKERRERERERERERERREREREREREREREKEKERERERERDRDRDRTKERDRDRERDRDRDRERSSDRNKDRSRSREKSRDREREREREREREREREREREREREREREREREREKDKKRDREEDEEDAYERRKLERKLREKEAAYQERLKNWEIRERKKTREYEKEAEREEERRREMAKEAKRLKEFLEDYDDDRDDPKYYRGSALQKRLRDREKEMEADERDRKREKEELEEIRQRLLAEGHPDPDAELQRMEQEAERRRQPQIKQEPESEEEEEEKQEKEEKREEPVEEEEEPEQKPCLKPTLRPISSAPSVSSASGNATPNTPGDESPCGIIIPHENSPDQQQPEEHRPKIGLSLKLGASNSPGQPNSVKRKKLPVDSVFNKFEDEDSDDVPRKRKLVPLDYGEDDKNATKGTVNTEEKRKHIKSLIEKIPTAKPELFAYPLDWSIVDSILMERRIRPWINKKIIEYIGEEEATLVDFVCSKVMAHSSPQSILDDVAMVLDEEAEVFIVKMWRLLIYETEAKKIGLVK

Compound: CN[C@@H]1C[C@H]2O[C@@](C)([C@@H]1OC)n1c3ccccc3c3c4c(c5c6ccccc6n2c5c31)C(=O)NC4 [staurosporine]
Assay: log2 fold change of tryptic peptide abundance, ligand vs vehicle (limited proteolysis) (log2 ratio); higher = more trypsin-susceptible (destabilized)
Details: ligand concentration: 20 uM; sample: mouse liver crude lysate; replicate design: treated separately

| Target | log2 fold change |
| --- | --- |
| UniProt O09172 (peptide sequence: CPSTHSEELR, peptide start residue: 35) | 0.193 |
| UniProt E9PYL2 (peptide sequence: VGVHLLEPATR, peptide start residue: 816) | 0.549 |
| UniProt O09173 (peptide sequence: WKPFEIPK, peptide start residue: 97) | 0.285 |
| UniProt O09111 (peptide sequence: AVIAPSGVEK, peptide start residue: 34) | -0.0645 |
| UniProt O08966 (peptide sequence: AKENTIYLQVQTGK, peptide start residue: 539) | -0.491 |
| UniProt B5X0G2 (peptide sequence: EKIEEHGNFR, peptide start residue: 48) | 0.664 |
| UniProt O08739 (peptide sequence: LNMSDLDEHVR, peptide start residue: 8) | 0.195 |
| UniProt O35387 (peptide sequence: YPDSHQPR, peptide start residue: 133) | -0.253 |
| UniProt G5E861 (peptide sequence: HLLAAQQK, peptide start residue: 579) | -0.443 |
| UniProt O09159 (peptide sequence: VAWHIDPFGHSR, peptide start residue: 191) | -0.263 |
| UniProt F8VPK0 (peptide sequence: LVALYHQEK, peptide start residue: 122) | 0.222 |
| UniProt B2RY56 (peptide sequence: CGLVLSWKR, peptide start residue: 110) | 0.141 |

Some of the entries above in a different format:
Target,log2 fold change
"UniProt G5E861 (peptide sequence: HLLAAQQK, peptide start residue: 579)",-0.443
"UniProt O09159 (peptide sequence: VAWHIDPFGHSR, peptide start residue: 191)",-0.263
